# Data published in the supplement of paper PMC8728848.
# The other results are listed elsewhere or left out.
# B1: pilr alpha (protein)
# chain: MLYGVTQPKHLSASMGGSVEIPFSFYYPWELATAPDVRISWRRGHFHRQSFYSTRPPSIHKDYVNRLFLNWTEGQKSGFLRISNLQKQDQSVYFCRVELDTRSSGRQQWQSIEGTKLSIT
# Key:
# Assay in all cases: glycan array binding signal (z-score within array); higher = stronger binding
# Conditions in all cases: glycan notation: IUPAC condensed, linker removed
# Fuc(a1-2)Gal = target: Fuc(a1-2)Gal
# In short: (§1)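 Glycan array binding is given as a within-array Z-score, which can be read as non-binding when negative. The arrays, 3228 of them, came from the Consortium for Functional Glycomics database and were retained only where the protein sequence was available. Z-scores were averaged across arrays of the same protein sequence at different concentrations or buffers and across linkers.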
# Fuc(a1-2)Gal(b1-3)GalNAc = target: Fuc(a1-2)Gal(b1-3)GalNAc
# In short: as §1
# [1] = target: Fuc(a1-2)Gal(b1-3)GalNAc(a1-3)[Fuc(a1-2)]Gal(b1-4)Glc
# In short: as §1
# [2] = target: Fuc(a1-2)Gal(b1-3)GalNAc(a1-3)[Fuc(a1-2)]Gal(b1-4)GlcNAc
# In short: as §1
# [3] = target: Fuc(a1-2)Gal(b1-3)GalNAc(b1-3)Gal
# In short: as §1
# [4] = target: Fuc(a1-2)Gal(b1-3)GalNAc(b1-3)Gal(a1-4)Gal(b1-4)Glc
# In short: as §1
# [5] = target: Fuc(a1-2)Gal(b1-3)GalNAc(b1-4)[Neu5Ac(a2-3)]Gal(b1-4)Glc
# In short: as §1
# Fuc(a1-2)Gal(b1-3)GlcNAc = target: Fuc(a1-2)Gal(b1-3)GlcNAc
# In short: as §1
# [6] = target: Fuc(a1-2)Gal(b1-3)GlcNAc(b1-2)Man(a1-3)[Fuc(a1-2)Gal(b1-3)GlcNAc(b1-2)Man(a1-6)]Man(b1-4)GlcNAc(b1-4)GlcNAc
# In short: as §1
# [7] = target: Fuc(a1-2)Gal(b1-3)GlcNAc(b1-2)Man(a1-3)[Fuc(a1-2)Gal(b1-3)GlcNAc(b1-2)Man(a1-6)]Man(b1-4)GlcNAc(b1-4)[Fuc(a1-6)]GlcNAc
# In short: as §1
# [8] = target: Fuc(a1-2)Gal(b1-3)GlcNAc(b1-3)Gal(b1-4)Glc
# In short: as §1
# [9] = target: Fuc(a1-2)Gal(b1-3)GlcNAc(b1-3)GalNAc
# In short: as §1
# [10] = target: Fuc(a1-2)Gal(b1-3)GlcNAc(b1-3)[Fuc(a1-2)Gal(b1-3)GlcNAc(b1-6)]GalNAc
# In short: as §1
# [11] = target: Fuc(a1-2)Gal(b1-3)GlcNAc(b1-3)[Gal(b1-4)GlcNAc(b1-6)]Gal(b1-4)Glc
# In short: as §1
# [12] = target: Fuc(a1-2)Gal(b1-3)GlcNAc(b1-3)[Neu5Ac(a2-6)Gal(b1-4)GlcNAc(b1-6)]Gal(b1-4)Glc
# In short: as §1
# [13] = target: Fuc(a1-2)Gal(b1-3)GlcNAc6S
# In short: as §1
# [14] = target: Fuc(a1-2)Gal(b1-3)[Fuc(a1-4)]GlcNAc
# In short: as §1
# [15] = target: Fuc(a1-2)Gal(b1-3)[Fuc(a1-4)]GlcNAc(b1-2)Man(a1-3)[Fuc(a1-2)Gal(b1-3)[Fuc(a1-4)]GlcNAc(b1-2)Man(a1-3)]Man(b1-4)GlcNAc(b1-4)GlcNAc
# In short: as §1
# [16] = target: Fuc(a1-2)Gal(b1-3)[Fuc(a1-4)]GlcNAc(b1-2)Man(a1-3)[Fuc(a1-2)Gal(b1-3)[Fuc(a1-4)]GlcNAc(b1-2)Man(a1-6)]Man(b1-4)GlcNAc(b1-4)[Fuc(a1-6)]GlcNAc(b1-4)[Fuc(a1-6)]GlcNAc
# In short: as §1
# [17] = target: Fuc(a1-2)Gal(b1-3)[Fuc(a1-4)]GlcNAc(b1-3)[Fuc(a1-3)[Gal(b1-4)]GlcNAc(b1-6)]Gal(b1-4)Glc
# In short: as §1
# [18] = target: Fuc(a1-2)Gal(b1-3)[Fuc(a1-4)]GlcNAc(b1-3)[Gal(b1-4)GlcNAc(b1-6)]Gal(b1-4)Glc
# In short: as §1
# Fuc(a1-2)Gal(b1-4)Glc = target: Fuc(a1-2)Gal(b1-4)Glc
# In short: as §1
# Fuc(a1-2)Gal(b1-4)Glc6S = target: Fuc(a1-2)Gal(b1-4)Glc6S
# In short: as §1
# Fuc(a1-2)Gal(b1-4)GlcNAc = target: Fuc(a1-2)Gal(b1-4)GlcNAc
# In short: as §1
# [19] = target: Fuc(a1-2)Gal(b1-4)GlcNAc(b1-2)Man
# In short: as §1
# [20] = target: Fuc(a1-2)Gal(b1-4)GlcNAc(b1-2)Man(a1-3)[Fuc(a1-2)Gal(b1-4)GlcNAc(b1-2)Man(a1-6)]Man(b1-4)GlcNAc(b1-4)GlcNAc
# In short: as §1
# [21] = target: Fuc(a1-2)Gal(b1-4)GlcNAc(b1-2)Man(a1-3)[Fuc(a1-2)Gal(b1-4)GlcNAc(b1-2)Man(a1-6)]Man(b1-4)GlcNAc(b1-4)[Fuc(a1-6)]GlcNAc
# In short: as §1
# [22] = target: Fuc(a1-2)Gal(b1-4)GlcNAc(b1-2)[Fuc(a1-2)Gal(b1-4)GlcNAc(b1-4)]Man(a1-3)[Fuc(a1-2)Gal(b1-4)GlcNAc(b1-2)Man(a1-6)]Man(b1-4)GlcNAc(b1-4)GlcNAc
# In short: as §1
# [23] = target: Fuc(a1-2)Gal(b1-4)GlcNAc(b1-3)Gal(b1-4)GlcNAc
# In short: as §1
# [24] = target: Fuc(a1-2)Gal(b1-4)GlcNAc(b1-3)Gal(b1-4)GlcNAc(b1-2)Man(a1-3)[Fuc(a1-2)Gal(b1-4)GlcNAc(b1-3)Gal(b1-4)GlcNAc(b1-2)Man(a1-6)]Man(b1-4)GlcNAc(b1-4)GlcNAc
# In short: as §1
# [25] = target: Fuc(a1-2)Gal(b1-4)GlcNAc(b1-3)Gal(b1-4)GlcNAc(b1-3)Gal(b1-4)GlcNAc
# In short: as §1
# [26] = target: Fuc(a1-2)Gal(b1-4)GlcNAc(b1-3)GalNAc
# In short: as §1
# [27] = target: Fuc(a1-2)Gal(b1-4)GlcNAc(b1-3)[Fuc(a1-2)Gal(b1-4)GlcNAc(b1-6)]GalNAc
# In short: as §1
# [28] = target: Fuc(a1-2)Gal(b1-4)GlcNAc(b1-3)[Fuc(a1-3)[Gal(b1-4)]GlcNAc(b1-6)]Gal(b1-4)Glc
# In short: as §1
# [29] = target: Fuc(a1-2)Gal(b1-4)GlcNAc(b1-6)GalNAc
# In short: as §1
# [30] = target: Fuc(a1-2)Gal(b1-4)GlcNAc6S
# In short: as §1
# [31] = target: Fuc(a1-2)Gal(b1-4)[Fuc(a1-3)]GlcNAc
# In short: as §1
# [32] = target: Fuc(a1-2)Gal(b1-4)[Fuc(a1-3)]GlcNAc(b1-2)Man(a1-3)[Fuc(a1-2)Gal(b1-4)[Fuc(a1-3)]GlcNAc(b1-2)Man(a1-6)]Man(b1-4)GlcNAc(b1-4)[Fuc(a1-6)]GlcNAc
# In short: as §1
# [33] = target: Fuc(a1-2)Gal(b1-4)[Fuc(a1-3)]GlcNAc(b1-2)[Fuc(a1-2)Gal(b1-4)[Fuc(a1-3)]GlcNAc(b1-4)]Man(a1-3)[Fuc(a1-2)Gal(b1-4)[Fuc(a1-3)]GlcNAc(b1-2)Man(a1-6)]Man(b1-4)GlcNAc(b1-4)GlcNAc
# In short: as §1
# [34] = target: Fuc(a1-2)Gal(b1-4)[Fuc(a1-3)]GlcNAc(b1-3)Gal(b1-4)[Fuc(a1-3)]GlcNAc
# In short: as §1
# [35] = target: Fuc(a1-2)Gal(b1-4)[Fuc(a1-3)]GlcNAc(b1-3)Gal(b1-4)[Fuc(a1-3)]GlcNAc(b1-3)Gal(b1-4)[Fuc(a1-3)]GlcNAc
# In short: as §1
# [36] = target: Fuc(a1-2)Gal(b1-4)[Fuc(a1-3)]GlcNAc(b1-3)GalNAc
# In short: as §1
# [37] = target: Fuc(a1-2)Gal(b1-4)[Fuc(a1-3)]GlcNAc(b1-3)[Neu5Ac(a2-6)Gal(b1-4)GlcNAc(b1-6)]Gal(b1-4)Glc
# In short: as §1
# [38] = target: Fuc(a1-2)Gal3S(b1-4)GlcNAc
# In short: as §1
# [39] = target: Fuc(a1-2)Gal6S(b1-3)GlcNAc
# In short: as §1
binder,measurement,setting,value
B1,glycan array binding signal (z-score),Fuc(a1-2)Gal,1.36
same,glycan array binding signal (z-score),Fuc(a1-2)Gal(b1-3)GalNAc,0.863
same,glycan array binding signal (z-score),[1],0.108
same,glycan array binding signal (z-score),[2],-0.058
same,glycan array binding signal (z-score),[3],-0.516
same,glycan array binding signal (z-score),[4],-0.181
same,glycan array binding signal (z-score),[5],-0.073
same,glycan array binding signal (z-score),Fuc(a1-2)Gal(b1-3)GlcNAc,-0.41
same,glycan array binding signal (z-score),[6],-0.321
same,glycan array binding signal (z-score),[7],0.342
same,glycan array binding signal (z-score),[8],-0.19
same,glycan array binding signal (z-score),[9],-0.88
same,glycan array binding signal (z-score),[10],0.217
same,glycan array binding signal (z-score),[11],-0.252
same,glycan array binding signal (z-score),[12],1.27
same,glycan array binding signal (z-score),[13],-0.223
same,glycan array binding signal (z-score),[14],0.099
same,glycan array binding signal (z-score),[15],-0.496
same,glycan array binding signal (z-score),[16],-0.535
same,glycan array binding signal (z-score),[17],-0.333
same,glycan array binding signal (z-score),[18],-0.394
same,glycan array binding signal (z-score),Fuc(a1-2)Gal(b1-4)Glc,-0.156
same,glycan array binding signal (z-score),Fuc(a1-2)Gal(b1-4)Glc6S,-0.407
same,glycan array binding signal (z-score),Fuc(a1-2)Gal(b1-4)GlcNAc,-0.108
same,glycan array binding signal (z-score),[19],-0.281
same,glycan array binding signal (z-score),[20],0.694
same,glycan array binding signal (z-score),[21],0.117
same,glycan array binding signal (z-score),[22],0.011
same,glycan array binding signal (z-score),[23],0.879
same,glycan array binding signal (z-score),[24],0.532
same,glycan array binding signal (z-score),[25],-0.814
same,glycan array binding signal (z-score),[26],0.009
same,glycan array binding signal (z-score),[27],-0.236
same,glycan array binding signal (z-score),[28],-0.28
same,glycan array binding signal (z-score),[29],0.043
same,glycan array binding signal (z-score),[30],-0.289
same,glycan array binding signal (z-score),[31],-0.172
same,glycan array binding signal (z-score),[32],0.355
same,glycan array binding signal (z-score),[33],-0.253
same,glycan array binding signal (z-score),[34],-0.303
same,glycan array binding signal (z-score),[35],-0.001
same,glycan array binding signal (z-score),[36],1.14
same,glycan array binding signal (z-score),[37],-0.725
same,glycan array binding signal (z-score),[38],-0.453
same,glycan array binding signal (z-score),[39],-0.236
